Reference: the supplement of paper PMC10849652
This is one part of the list.

The chains behind the UniProt entries cited, without tags or fusion partners. Where a name states a change or a piece, a line headed by the entry shows the natural chain unless it says otherwise.
UniProt Q8TBQ9: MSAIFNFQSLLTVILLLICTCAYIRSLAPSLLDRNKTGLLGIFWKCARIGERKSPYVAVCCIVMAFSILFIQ
UniProt Q7Z7H5: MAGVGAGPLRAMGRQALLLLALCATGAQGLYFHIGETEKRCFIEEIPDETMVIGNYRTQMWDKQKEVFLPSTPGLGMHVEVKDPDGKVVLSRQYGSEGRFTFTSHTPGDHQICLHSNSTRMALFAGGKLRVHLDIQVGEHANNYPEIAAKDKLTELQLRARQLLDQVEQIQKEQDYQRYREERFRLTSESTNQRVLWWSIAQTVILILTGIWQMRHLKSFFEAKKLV
UniProt Q9P0S9: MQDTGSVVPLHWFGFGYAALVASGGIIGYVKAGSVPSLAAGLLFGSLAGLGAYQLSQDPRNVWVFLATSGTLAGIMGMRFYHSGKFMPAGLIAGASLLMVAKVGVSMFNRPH
UniProt Q9BRN9: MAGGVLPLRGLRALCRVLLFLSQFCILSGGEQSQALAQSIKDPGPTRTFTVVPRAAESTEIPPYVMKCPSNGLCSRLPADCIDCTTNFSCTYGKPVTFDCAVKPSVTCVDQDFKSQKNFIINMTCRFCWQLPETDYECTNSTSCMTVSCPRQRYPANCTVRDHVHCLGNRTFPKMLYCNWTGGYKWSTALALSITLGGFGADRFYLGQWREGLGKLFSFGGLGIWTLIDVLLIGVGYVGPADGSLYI
UniProt Q96B77: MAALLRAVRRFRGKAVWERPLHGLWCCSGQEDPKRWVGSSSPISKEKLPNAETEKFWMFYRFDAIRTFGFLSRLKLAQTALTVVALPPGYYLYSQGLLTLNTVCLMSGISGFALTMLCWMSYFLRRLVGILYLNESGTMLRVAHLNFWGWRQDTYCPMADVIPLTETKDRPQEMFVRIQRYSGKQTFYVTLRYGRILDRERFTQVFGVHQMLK
UniProt Q96I45: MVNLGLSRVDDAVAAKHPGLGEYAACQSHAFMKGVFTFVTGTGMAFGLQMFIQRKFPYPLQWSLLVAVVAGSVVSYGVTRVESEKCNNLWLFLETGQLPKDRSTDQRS
UniProt Q8NBN3: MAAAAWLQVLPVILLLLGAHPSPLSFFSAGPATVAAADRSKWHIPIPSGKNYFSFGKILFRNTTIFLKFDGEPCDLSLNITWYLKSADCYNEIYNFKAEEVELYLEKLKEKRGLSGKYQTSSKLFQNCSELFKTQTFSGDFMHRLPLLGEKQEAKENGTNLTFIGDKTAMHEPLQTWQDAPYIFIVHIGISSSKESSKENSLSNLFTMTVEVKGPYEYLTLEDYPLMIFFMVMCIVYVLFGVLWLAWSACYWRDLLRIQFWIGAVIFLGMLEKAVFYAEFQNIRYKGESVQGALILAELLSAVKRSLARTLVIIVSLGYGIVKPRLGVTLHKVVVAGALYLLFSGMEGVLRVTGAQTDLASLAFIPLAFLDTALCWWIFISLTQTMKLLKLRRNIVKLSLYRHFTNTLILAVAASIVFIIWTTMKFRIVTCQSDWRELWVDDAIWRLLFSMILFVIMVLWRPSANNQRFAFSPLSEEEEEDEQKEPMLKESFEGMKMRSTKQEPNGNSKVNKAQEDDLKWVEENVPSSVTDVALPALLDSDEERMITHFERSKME
UniProt Q9NX00: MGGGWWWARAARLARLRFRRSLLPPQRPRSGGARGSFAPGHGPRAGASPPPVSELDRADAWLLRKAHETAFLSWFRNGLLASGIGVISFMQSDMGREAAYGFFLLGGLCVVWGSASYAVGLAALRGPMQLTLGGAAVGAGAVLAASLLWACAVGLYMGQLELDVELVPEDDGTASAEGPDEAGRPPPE
UniProt Q9HD45: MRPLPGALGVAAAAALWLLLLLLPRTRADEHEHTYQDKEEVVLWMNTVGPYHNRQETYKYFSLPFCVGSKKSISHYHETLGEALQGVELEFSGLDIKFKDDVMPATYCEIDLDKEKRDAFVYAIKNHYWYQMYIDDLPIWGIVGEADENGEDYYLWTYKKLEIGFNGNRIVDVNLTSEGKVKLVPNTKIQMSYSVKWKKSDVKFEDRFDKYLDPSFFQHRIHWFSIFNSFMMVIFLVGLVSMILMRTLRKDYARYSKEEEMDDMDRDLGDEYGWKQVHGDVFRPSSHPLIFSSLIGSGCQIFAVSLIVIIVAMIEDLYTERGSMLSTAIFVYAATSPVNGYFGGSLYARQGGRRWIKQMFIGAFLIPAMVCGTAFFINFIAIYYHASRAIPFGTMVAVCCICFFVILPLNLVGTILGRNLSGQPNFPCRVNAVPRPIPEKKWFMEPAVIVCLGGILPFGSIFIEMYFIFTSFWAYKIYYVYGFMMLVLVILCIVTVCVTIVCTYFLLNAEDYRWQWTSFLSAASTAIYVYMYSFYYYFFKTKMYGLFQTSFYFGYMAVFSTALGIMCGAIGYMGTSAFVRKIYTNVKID
UniProt P42167: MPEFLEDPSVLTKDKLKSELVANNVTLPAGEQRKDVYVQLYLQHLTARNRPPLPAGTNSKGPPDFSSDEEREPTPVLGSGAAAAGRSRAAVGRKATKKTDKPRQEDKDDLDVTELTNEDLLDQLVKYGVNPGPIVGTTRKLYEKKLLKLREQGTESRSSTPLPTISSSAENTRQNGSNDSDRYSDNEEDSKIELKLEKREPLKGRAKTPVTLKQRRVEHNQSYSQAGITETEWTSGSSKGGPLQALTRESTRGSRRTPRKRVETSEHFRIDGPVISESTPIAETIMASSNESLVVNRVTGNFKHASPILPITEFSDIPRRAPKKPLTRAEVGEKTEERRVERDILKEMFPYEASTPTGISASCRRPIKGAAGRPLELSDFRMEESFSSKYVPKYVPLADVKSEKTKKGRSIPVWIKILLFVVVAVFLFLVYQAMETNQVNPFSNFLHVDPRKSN
UniProt Q9NYL9: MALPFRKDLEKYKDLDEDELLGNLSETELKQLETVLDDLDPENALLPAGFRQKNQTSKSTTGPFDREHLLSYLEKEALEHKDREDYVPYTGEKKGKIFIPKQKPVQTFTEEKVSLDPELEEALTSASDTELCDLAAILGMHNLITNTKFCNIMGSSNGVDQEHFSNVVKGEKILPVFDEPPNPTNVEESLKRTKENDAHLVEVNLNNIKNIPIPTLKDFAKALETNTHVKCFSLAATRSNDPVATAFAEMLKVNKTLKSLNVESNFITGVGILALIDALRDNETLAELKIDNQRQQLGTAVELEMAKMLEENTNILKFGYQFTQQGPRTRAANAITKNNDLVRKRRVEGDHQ
UniProt Q96MH6: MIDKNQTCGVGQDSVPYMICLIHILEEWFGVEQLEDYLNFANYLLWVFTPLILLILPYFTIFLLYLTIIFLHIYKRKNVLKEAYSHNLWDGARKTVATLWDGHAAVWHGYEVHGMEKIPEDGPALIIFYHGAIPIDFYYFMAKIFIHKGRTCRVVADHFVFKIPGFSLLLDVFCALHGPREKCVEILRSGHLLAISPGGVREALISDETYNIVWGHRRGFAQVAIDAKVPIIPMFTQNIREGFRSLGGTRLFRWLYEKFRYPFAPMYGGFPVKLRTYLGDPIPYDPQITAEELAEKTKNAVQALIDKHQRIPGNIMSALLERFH
UniProt Q9UM00: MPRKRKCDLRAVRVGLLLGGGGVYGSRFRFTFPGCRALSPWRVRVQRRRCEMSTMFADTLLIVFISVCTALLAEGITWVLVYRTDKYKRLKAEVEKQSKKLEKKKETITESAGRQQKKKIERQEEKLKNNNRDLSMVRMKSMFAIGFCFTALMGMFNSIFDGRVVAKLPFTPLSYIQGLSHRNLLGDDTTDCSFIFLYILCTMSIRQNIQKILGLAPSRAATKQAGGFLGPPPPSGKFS
UniProt Q15363: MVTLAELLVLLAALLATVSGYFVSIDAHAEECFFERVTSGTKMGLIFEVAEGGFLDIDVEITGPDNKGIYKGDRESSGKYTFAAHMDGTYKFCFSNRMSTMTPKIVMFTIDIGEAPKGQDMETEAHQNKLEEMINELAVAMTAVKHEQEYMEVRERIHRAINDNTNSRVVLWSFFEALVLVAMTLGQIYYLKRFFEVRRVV
UniProt Q9H1E5: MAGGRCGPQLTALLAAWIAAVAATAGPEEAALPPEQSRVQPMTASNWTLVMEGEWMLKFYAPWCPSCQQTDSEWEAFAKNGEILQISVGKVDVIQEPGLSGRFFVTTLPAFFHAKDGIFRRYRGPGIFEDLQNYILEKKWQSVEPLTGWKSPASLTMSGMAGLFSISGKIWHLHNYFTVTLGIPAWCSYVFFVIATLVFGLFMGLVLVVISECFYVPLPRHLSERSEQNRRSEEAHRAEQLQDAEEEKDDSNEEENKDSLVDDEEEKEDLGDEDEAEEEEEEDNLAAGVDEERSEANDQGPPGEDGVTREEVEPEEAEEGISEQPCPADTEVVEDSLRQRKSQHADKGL
UniProt P42166: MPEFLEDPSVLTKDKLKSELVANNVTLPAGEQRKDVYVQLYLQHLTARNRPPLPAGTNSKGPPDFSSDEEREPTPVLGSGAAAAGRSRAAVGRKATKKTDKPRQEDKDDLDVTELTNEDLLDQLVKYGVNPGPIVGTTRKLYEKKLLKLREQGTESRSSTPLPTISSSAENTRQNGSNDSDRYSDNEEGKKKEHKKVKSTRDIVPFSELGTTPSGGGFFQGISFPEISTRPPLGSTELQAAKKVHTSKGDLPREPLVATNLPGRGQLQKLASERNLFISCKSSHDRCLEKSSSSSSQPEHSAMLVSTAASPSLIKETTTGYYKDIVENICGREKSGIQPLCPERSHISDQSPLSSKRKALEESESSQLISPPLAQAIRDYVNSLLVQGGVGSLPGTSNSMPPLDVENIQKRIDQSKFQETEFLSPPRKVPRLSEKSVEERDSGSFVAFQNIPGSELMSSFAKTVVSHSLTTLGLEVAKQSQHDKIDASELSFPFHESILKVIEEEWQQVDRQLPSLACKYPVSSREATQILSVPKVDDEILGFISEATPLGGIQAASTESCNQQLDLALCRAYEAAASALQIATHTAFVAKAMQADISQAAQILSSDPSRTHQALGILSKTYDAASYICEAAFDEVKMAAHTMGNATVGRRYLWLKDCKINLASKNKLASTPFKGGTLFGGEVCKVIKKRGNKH
UniProt Q4ZIN3: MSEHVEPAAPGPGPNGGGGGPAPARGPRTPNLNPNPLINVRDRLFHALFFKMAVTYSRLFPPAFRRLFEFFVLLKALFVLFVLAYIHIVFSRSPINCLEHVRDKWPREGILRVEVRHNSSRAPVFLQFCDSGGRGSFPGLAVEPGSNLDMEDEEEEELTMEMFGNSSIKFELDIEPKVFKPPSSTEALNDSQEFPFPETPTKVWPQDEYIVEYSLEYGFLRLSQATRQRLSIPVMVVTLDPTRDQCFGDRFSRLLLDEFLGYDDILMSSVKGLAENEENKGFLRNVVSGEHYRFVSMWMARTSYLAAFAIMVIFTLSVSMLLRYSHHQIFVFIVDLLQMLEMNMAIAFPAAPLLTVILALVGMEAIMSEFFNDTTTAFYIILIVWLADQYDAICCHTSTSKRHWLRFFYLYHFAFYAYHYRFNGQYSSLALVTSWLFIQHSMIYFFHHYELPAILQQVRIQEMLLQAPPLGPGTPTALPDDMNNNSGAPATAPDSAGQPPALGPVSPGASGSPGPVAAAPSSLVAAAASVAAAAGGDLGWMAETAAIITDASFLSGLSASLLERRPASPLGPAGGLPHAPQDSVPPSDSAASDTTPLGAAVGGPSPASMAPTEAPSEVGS
UniProt P63313: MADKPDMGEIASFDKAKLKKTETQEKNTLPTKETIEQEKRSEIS
UniProt Q96A57: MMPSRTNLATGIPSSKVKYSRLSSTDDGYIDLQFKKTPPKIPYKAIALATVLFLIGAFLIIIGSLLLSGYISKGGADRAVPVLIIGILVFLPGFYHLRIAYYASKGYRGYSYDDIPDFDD
UniProt Q0P6H9: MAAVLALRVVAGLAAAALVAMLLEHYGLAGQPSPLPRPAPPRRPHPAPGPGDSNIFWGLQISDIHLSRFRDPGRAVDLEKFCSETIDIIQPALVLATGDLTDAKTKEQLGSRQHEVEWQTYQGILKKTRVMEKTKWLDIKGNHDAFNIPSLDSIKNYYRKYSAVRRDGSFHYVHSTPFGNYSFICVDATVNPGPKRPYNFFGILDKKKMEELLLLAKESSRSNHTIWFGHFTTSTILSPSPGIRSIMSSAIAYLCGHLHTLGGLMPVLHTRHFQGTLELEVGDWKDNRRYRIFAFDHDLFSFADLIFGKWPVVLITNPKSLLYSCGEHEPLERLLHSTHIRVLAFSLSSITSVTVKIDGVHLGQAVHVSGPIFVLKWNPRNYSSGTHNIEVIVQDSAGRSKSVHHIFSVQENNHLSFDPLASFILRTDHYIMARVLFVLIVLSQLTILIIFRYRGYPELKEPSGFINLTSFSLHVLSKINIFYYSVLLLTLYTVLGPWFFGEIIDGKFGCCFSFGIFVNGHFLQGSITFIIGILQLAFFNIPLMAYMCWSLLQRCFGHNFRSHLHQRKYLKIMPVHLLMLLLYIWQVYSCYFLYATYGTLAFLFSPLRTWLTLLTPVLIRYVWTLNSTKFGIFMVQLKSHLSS
UniProt P17152: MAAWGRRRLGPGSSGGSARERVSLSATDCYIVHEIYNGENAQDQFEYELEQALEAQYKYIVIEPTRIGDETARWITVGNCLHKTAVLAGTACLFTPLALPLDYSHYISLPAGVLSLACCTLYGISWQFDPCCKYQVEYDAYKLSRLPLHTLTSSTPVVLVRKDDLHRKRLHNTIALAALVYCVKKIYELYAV

Compound: CO[C@H]1C[C@@H]2CC[C@@H](C)[C@@](O)(O2)C(=O)C(=O)N2CCCC[C@H]2C(=O)O[C@H]([C@H](C)C[C@@H]2CC[C@H](n3cnnn3)[C@H](OC)C2)CC(=O)[C@H](C)/C=C(\C)[C@@H](O)[C@@H](OC)C(=O)[C@H](C)C[C@H](C)/C=C/C=C/C=C/1C [zotarolimus]
Test: log2 fold change, soluble protein after heating vs DMSO (PISA); higher = thermal stabilisation; K562 cells, 10 uM, 30 min; active = over 0.2 and 3.5 SD of the protein, either way, in both replicates (recomputed)
Outline: (§1)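 Values are thermal stability changes relative to control samples and are taken from duplicates. They are stated as log2 fold changes. Before quantification by TMTpro 16plex LC-MS/MS with equalised channel sums, K562 cells at 2×10^6 cells/mL were treated with 10 μM compound for 30 min, heated in aliquots for 3 min across 48°C-58°C, pooled, extracted in PBS with 0.5% NP-40 at 4°C, and centrifuged at 21,000xg for 90 min to give the soluble supernatant.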

log2 fold change, inactive:
TMEM245 (UniProt Q9H330) -0.002
TMEM167A (UniProt Q8TBQ9) -0.022
TMOD2 (UniProt Q9NZR1) 0.03
TMED4 (UniProt Q7Z7H5) 0.022
TMEM14C (UniProt Q9P0S9) -0.084
TLN2 (UniProt Q9Y4G6) 0.052
TMEM109 (UniProt Q9BVC6) -0.046
TM2D3 (UniProt Q9BRN9) 0.009
TMEM186 (UniProt Q96B77) -0.09
TMEM141 (UniProt Q96I45) -0.074
TMEM65 (UniProt Q6PI78) -0.043
TMEM87A (UniProt Q8NBN3) -0.043
TMEM33 (UniProt P57088) 0.037
TLN1 (UniProt Q9Y490) 0.026
TNFRSF10B (UniProt O14763) -0.005
TMEM160 (UniProt Q9NX00) -0.062
TM9SF3 (UniProt Q9HD45) 0.019
TMPO isoform 2 (UniProt P42167) -0.045
TMOD3 (UniProt Q9NYL9) 0.061
TMEM222 (UniProt Q9H0R3) -0.198
TMEM185B (UniProt Q9H7F4) -0.015
TMA16 (UniProt Q96EY4) 0.044
TMEM30A (UniProt Q9NV96) -0.098
TMEM68 (UniProt Q96MH6) -0.016
TMCO1 (UniProt Q9UM00) -0.001
TMED2 (UniProt Q15363) -0.019
TMX4 (UniProt Q9H1E5) 0.003
TMEM168 (UniProt Q9H0V1) -0.03
TMPO (UniProt P42166) -0.066
TMEM259 (UniProt Q4ZIN3) -0.043
TMSB10 (UniProt P63313) 0.112
TMEM248 (UniProt Q9NWD8) 0.025
TMED3 (UniProt Q9Y3Q3) -0.028
TMEM209 (UniProt Q96SK2) 0.004
TMEM230 isoform 2 (UniProt Q96A57) 0.06
TMED1 (UniProt Q13445) -0.023
TMPO (UniProt P42167) -0.048
TMEM62 (UniProt Q0P6H9) -0.144
TMEM11 (UniProt P17152) 0.024

Compound: COc1cc(C(=O)O)ccc1NC(=O)[C@@H]1N[C@@H](CC(C)(C)C)[C@](C#N)(c2ccc(Cl)cc2F)[C@H]1c1cccc(Cl)c1F [idasanutlin]
Test: as above
Outline: as §1

log2 fold change, inactive:
TMEM245 (UniProt Q9H330) -0.072
TMEM167A (UniProt Q8TBQ9) -0.023
TMOD2 (UniProt Q9NZR1) -0.068
TMED4 (UniProt Q7Z7H5) -0.095
TMEM14C (UniProt Q9P0S9) 0
TLN2 (UniProt Q9Y4G6) -0.01
TMEM109 (UniProt Q9BVC6) 0.021
TM2D3 (UniProt Q9BRN9) -0.021
TMEM186 (UniProt Q96B77) -0.008
TMEM141 (UniProt Q96I45) 0.06
TMEM65 (UniProt Q6PI78) -0.012
TMEM87A (UniProt Q8NBN3) -0.022
TMEM33 (UniProt P57088) -0.077
TLN1 (UniProt Q9Y490) -0.07
TNFRSF10B (UniProt O14763) 0.033
TMEM160 (UniProt Q9NX00) -0.047
TM9SF3 (UniProt Q9HD45) 0.057
TMPO isoform 2 (UniProt P42167) 0.038
TMOD3 (UniProt Q9NYL9) -0.003
TMEM222 (UniProt Q9H0R3) -0.036
TMEM185B (UniProt Q9H7F4) 0.036
TMA16 (UniProt Q96EY4) 0.186
TMEM30A (UniProt Q9NV96) 0.02
TMEM68 (UniProt Q96MH6) -0.059
TMCO1 (UniProt Q9UM00) 0.016
TMED2 (UniProt Q15363) 0.001
TMX4 (UniProt Q9H1E5) 0.041
TMEM168 (UniProt Q9H0V1) -0.084
TMPO (UniProt P42166) 0.183
TMEM259 (UniProt Q4ZIN3) -0.006
TMSB10 (UniProt P63313) -0.083
TMEM248 (UniProt Q9NWD8) -0.092
TMED3 (UniProt Q9Y3Q3) 0.013
TMEM209 (UniProt Q96SK2) -0.031
TMEM230 isoform 2 (UniProt Q96A57) 0.027
TMED1 (UniProt Q13445) -0.184
TMPO (UniProt P42167) -0.028
TMEM62 (UniProt Q0P6H9) 0.036
TMEM11 (UniProt P17152) -0.01
